# Results: PubChem BioAssay AID504834 (National Center for Advancing Translational Sciences (NCATS), 2011)
# The campaign covered roughly 320,000 compounds. About 22,000 (6.9%) were called active. The shares of active, inactive and inconclusive entries below differ from those in the screen. The call rests on the fitted dose curve; in most records, active means well fitted inhibition curve with a large enough effect; inconclusive means small, poorly fitted or top-dose-only effect, or another doubt; inactive means no such curve, though single readings can be large or run the other way. A potency beside an inconclusive call is a rough fit, not a confirmed value.
# Experiment: Primary qHTS for delayed death inhibitors of the malarial parasite plastid, 96 hour incubation
# Conditions: P. falciparum luciferase reporter growth; series mostly up to 28.7 µM
# Outline: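 Plates of compound plus infected erythrocytes (2% hematocrit, 0.05% parasitemia final) incubate 96 hours, 37 C, 5% CO2. Detection reagent added; reduced luminescence from the parasites' luciferase reporter flags inhibition.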
# Potency means the concentration at half of the fitted maximal effect.
row,SMILES,Potency
1,COc1ccc([C@H]2CC(=O)C=C(c3cc4ccccc4s3)C2)cc1OC,"inconclusive: 23.3 µM [inhibitor, partial curve, poor fit]"
2,CS(=O)(=O)N(CC(=O)Nc1ccc(S(=O)(=O)N2CCCC2)cc1)c1ccccc1,"inconclusive: 18.5 µM [inhibitor, single point]"
3,CC1CC(=O)N(CC(=O)NCc2ccco2)c2ccccc2S1 (stereo not drawn),"inconclusive: 5.86 µM [inhibitor, partial curve]"
4,Cc1ccc(S(=O)(=O)/N=C(\c2ccc(F)cc2)n2c(C)nc3ccccc32)cc1,"inconclusive: 9.28 µM [inhibitor, partial curve, poor fit]"
5,CCOC(=O)[C@H]1[C@H]2COc3ccc(Br)cc3[C@@H]2N2C(=O)c3cc(F)c(F)cc3NC(=O)[C@@]12C,"inconclusive: 14.7 µM [inhibitor, single point]"
6,Cc1occc1-c1nnc(SCC(=O)NCc2cccs2)n1CC1CCCO1 (stereo not drawn),active: 5.22 µM
7,Cc1ccc(Nc2nc3ccc(Cl)cc3n3cnnc23)cc1F,"inconclusive: 14.7 µM [inhibitor, single point]"
8,CSCC[C@H](NC(=O)C1CCN(S(=O)(=O)c2ccc(C)cc2)CC1)C(=O)NCC1CCCO1 (stereo partly drawn),"inconclusive: 11.7 µM [inhibitor, single point]"
9,Cc1ccc(C(=O)N/C(=C\c2cn(C)c3ccccc23)C(=O)NCCCn2ccnc2)cc1,"inconclusive: 18.5 µM [inhibitor, single point]"
10,CCOC(=O)c1sc2nc(NC(=O)C3CC3)sc2c1C,"inconclusive: 10.4 µM [inhibitor, partial curve, poor fit]"
11,CCOC(=O)c1c(N)sc2c(OC)c(Br)ccc12,"inconclusive: 0.0828 µM [inhibitor, full curve, poor fit]"
12,CC1CN(C(=S)NC(=O)c2ccco2)CC(C)O1 (stereo not drawn),inactive
13,O=C(Nc1cccc(NC(=O)c2nccc3ccccc23)c1)c1ccco1,"inconclusive: 10.4 µM [inhibitor, single point]"
14,Cn1c(=O)oc2cc(S(=O)(=O)NCCC(=O)NCCc3ccc(Cl)cc3)ccc21,"inconclusive: 13.1 µM [inhibitor, single point]"
15,CCN1CCCC1CNC(=O)c1csc2c1CCCC2 (stereo not drawn),"inconclusive: 11.7 µM [inhibitor, single point]"
16,CC(O)CNC12CC3CC(CC(C3)C1)C2 (stereo not drawn),"inconclusive: 18.5 µM [inhibitor, single point]"
17,O=C(C/C=N/OCc1c(Cl)cccc1Cl)c1ccccc1,"inconclusive: 16.5 µM [inhibitor, partial curve, poor fit]"
18,Cc1ccc(NC(=O)C2CC(=O)N/C(=N/N=C/c3ccco3)S2)cc1C (stereo not drawn),"inconclusive: 13.1 µM [inhibitor, single point]"
19,CNC(=S)N1CCN(c2nc(-c3ccc(Cl)cc3)cs2)CC1,active: 7.38 µM
20,Cc1cc(OCC(=O)OCC(=O)NCCN2C(=O)CSC2=O)ccc1Cl,inactive
21,COc1ccc2c(c1)OC[C@H]1[C@H]2N2C(=O)CN(C)C(=O)[C@@]2(C)[C@H]1c1ccccc1,"inconclusive: 16.5 µM [inhibitor, single point]"
22,CCOc1ccc(CN(C)C(=O)CNC(=O)c2ccc3ccccc3c2)cc1OC,inactive
23,Cc1noc(C)c1COC(=O)C1CCN(S(=O)(=O)c2ccc(F)cc2)CC1,"inconclusive: 18.5 µM [inhibitor, single point]"

row,SMILES,Potency
1,Cc1cc(NCCCN2CCOCC2)n2ncc(-c3ccc(Cl)cc3)c2n1,inactive
2,CCC(=O)c1c(NCCc2ccccc2)cc(C)oc1=O,"inconclusive: 18.5 µM [inhibitor, single point]"
3,Cc1cc(C)n(-c2nnc(NC34CC5CC(CC(C5)C3)C4)nn2)n1,active: 2.94 µM
4,CCn1c(=O)c(C(=O)NCc2ccc(F)cc2)c(O)c2ccccc21,active: 11.7 µM
5,C/C(=N\NC(=O)c1nn(C)cc1Br)c1cccc(NC(=O)C(C)(C)C)c1,"inconclusive: 4.15 µM [inhibitor, partial curve]"
6,COc1ccc(-c2nnc3n(CCc4ccccc4)c(=O)c4ccccc4n23)cc1OC,active: 11.7 µM
7,COC(=O)C(Cc1ccccc1)NC(=O)CCc1c[nH]c2ccccc12 (stereo not drawn),inactive
8,O=C(Nc1ccc(Cl)cc1)/C(=C/c1cccc(O)c1)c1nc2ccccc2s1,active: 4.15 µM
9,CS(=O)(=O)N(CC(=O)N1CCN(Cc2ccccc2)CC1)c1ccc(F)cc1,"inconclusive: 18.5 µM [inhibitor, single point]"
10,CC(=O)N(C)c1ccc(NC(=O)Nc2ccccc2C)cc1,inactive
11,COc1nc(OC)nc(N2CCC(C(=O)NC3CC3)CC2)n1,"inconclusive: 10.4 µM [inhibitor, single point]"
12,O=C(c1ccncc1)c1ccc(N2CCN(C3CC(=O)N(Cc4cccs4)C3=O)CC2)cc1 (stereo not drawn),"inconclusive: 9.28 µM [inhibitor, partial curve, poor fit]"
13,Cc1ccc(N2CCCC2=O)cc1S(=O)(=O)N1CCOCC1,"inconclusive: 14.7 µM [inhibitor, partial curve]"
14,CSc1ncc(/C=C2/C(=O)NC(=O)N(C)C2=O)cn1,inactive
15,Cn1c(=S)c2[nH]c(SCCN3CCCC3)nc2n(C)c1=O,"inconclusive: 1.65 µM [inhibitor, full curve]"
16,Cc1nnc(SCC(=O)NC2CCCCC2)s1,inactive
17,NC(=O)COc1ccc(NS(=O)(=O)Cc2ccccc2)cc1,"inconclusive: 14.7 µM [inhibitor, single point]"
18,CCCc1nnc(SCC(=O)Nc2ccccc2Cl)n1CC1CCCO1 (stereo not drawn),inactive
19,Cc1ccc(NC(=O)[C@H](NC(=O)[C@@H]2Cc3ccccc3CN2)c2ccccc2)cc1,"inconclusive: 18.5 µM [inhibitor, single point]"
20,Cn1c(-c2ccc(=O)[nH]c2)nc2ccccc21,"inconclusive: 9.28 µM [inhibitor, partial curve, poor fit]"
21,O=C(CCC(=O)N1CCOc2ccc(Cl)cc21)N1CCC2(CC1)OCCO2,"inconclusive: 10.4 µM [inhibitor, single point]"
22,Cc1ccccc1-c1cn(-c2ccccc2)c(=S)[nH]1,"inconclusive: 11.7 µM [inhibitor, single point]"
23,O=C(Cn1c2ccccc2c(=O)c2ccccc21)N/N=C/c1ccc(N2CCCC2)c([N+](=O)[O-])c1,inactive

# Individual results from the results shown:
# In Potency, `O=C(Nc1cccc(NC(=O)c2nccc3ccccc23)c1)c1ccco1` has inconclusive: 10.4 µM [inhibitor, single point]
# In Potency, `COc1ccc2c(c1)OC[C@H]1[C@H]2N2C(=O)CN(C)C(=O)[C@@]2(C)[C@H]1c1ccccc1` has inconclusive: 16.5 µM [inhibitor, single point]
# In Potency, `O=C(CCC(=O)N1CCOc2ccc(Cl)cc21)N1CCC2(CC1)OCCO2` has inconclusive: 10.4 µM [inhibitor, single point]
# In Potency, `CC(O)CNC12CC3CC(CC(C3)C1)C2` (stereo not drawn) has inconclusive: 18.5 µM [inhibitor, single point]

# Next entries.

row,SMILES,Potency
1,COc1ccccc1OCC(=O)N1CCNC1=O,"inconclusive: 18.5 µM [inhibitor, single point]"
2,COc1ccc(/C=N/Nc2nc3ccccc3s2)cc1O,"inconclusive: 0.294 µM [inhibitor, full curve, poor fit]"
3,c1ccc(CNc2c3c(nc4ncnn24)CCCC3)nc1,active: 8.28 µM
4,COc1cc(OC)cc(C(=O)Nc2ccc(S(=O)(=O)N(C)C)cc2)c1,"inconclusive: 9.28 µM [inhibitor, single point]"
5,Cc1noc(C)c1COc1ccc(C(=O)Nc2ccccn2)cc1,"inconclusive: 11.7 µM [inhibitor, single point]"
6,COc1ccc(NC(=O)c2ccc(CNc3c(N4CCCC4)c(=O)c3=O)cc2)cc1Cl,"inconclusive: 11.7 µM [inhibitor, partial curve, poor fit]"
7,N#Cc1ccc(-c2ccc(F)cc2)nc1SCC(=O)Nc1sc2c(c1C#N)CCC2,inactive
8,Cc1ccc(-c2cc(C#N)c(=O)n(Cc3c(Cl)cccc3Cl)c2)cc1,"inconclusive: 3.29 µM [inhibitor, partial curve, poor fit]"
9,C[C@@H]1CN(C(=O)c2ccc(OC3CCN(S(=O)(=O)N(C)C)CC3)cc2)C[C@H](C)O1,"inconclusive: 14.7 µM [inhibitor, partial curve, poor fit]"
10,COc1ccccc1C/C(N)=N/OC(=O)COc1ccc2ccccc2c1,inactive
11,CCCC12CN3CCN(CC(C3)/C1=N\NC(=O)c1ccc(C(C)(C)C)cc1)C2,inactive
12,CC1(C)CC(NC(=O)C2CCN(S(=O)(=O)c3ccccc3C(F)(F)F)CC2)CC(C)(C)N1,"inconclusive: 4.65 µM [inhibitor, partial curve, poor fit]"
13,CCc1ccc(NC(=O)C(NS(=O)(=O)c2ccc3c(c2)CCN3C(C)=O)C(C)C)cc1 (stereo not drawn),"inconclusive: 18.5 µM [inhibitor, single point]"
14,O=c1c2ccccc2cnn1Cc1n[nH]c(=S)n1-c1ccc(Cl)cc1,inactive
15,Cc1ccc(N(C)S(=O)(=O)c2cccc(C(=O)NNC(=O)c3ccncc3)c2)cc1,"inconclusive: 11.7 µM [inhibitor, partial curve, poor fit]"
16,O=S(=O)(c1ccc(F)cc1)c1nc(-c2ccco2)oc1Nc1ccccc1,"inconclusive: 18.5 µM [inhibitor, single point]"
17,CCN(CC)S(=O)(=O)c1cccc(C(=O)Nc2cc3oc4ccccc4c3cc2OC)c1,"inconclusive: 11.7 µM [inhibitor, single point]"
18,N#CCCN1CCN(S(=O)(=O)c2ccc(S(=O)(=O)NC3CC3)cc2)CC1,inactive
19,COc1ccc(CCN=C(N)NS(=O)(=O)c2cc(F)ccc2OC)cc1,inactive
20,CCOc1cc(C=O)ccc1OS(=O)(=O)c1ccc(NC(C)=O)cc1,"inconclusive: 13.1 µM [inhibitor, partial curve, poor fit]"
21,Cc1ccc(S(=O)(=O)NCCSc2ncccn2)cc1,"inconclusive: 20.8 µM [inhibitor, partial curve, poor fit]"
22,CS(=O)(=O)NCc1ccc(C(=O)O)cc1,"inconclusive: 5.86 µM [inhibitor, partial curve, poor fit]"
